PubChem BioAssay AID602196 | INSERM – 2012
Shown is one part, drawn at random, of about 23,000 reagents. 455 of them (2%) count as active. 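Active includes both protection and sensitisation; some change values fall well beyond the stated -50 to +50 range.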 Not all columns of the deposit are shown. Not given: the amount of reagent.

Screen: 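Genes whose knock-down alters cisplatin killing of lung cancer cells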
Cell system: human A549 lung cancer cells
Reagents: siRNA pair against human genes
Time to read-out: 48 h transfection before cisplatin; time from cisplatin to read-out not stated
Conditions: cisplatin at a dose killing half of control-siRNA cells; exact dose and duration not given
Read-out: 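Shift in cisplatin death relative to control siRNA, from -50 (all cells die) to +50 (no cells die); siRNAs harmful on their own scored 0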
Direction: two-siRNA summed score (-2 to +2): higher = both siRNAs protect from cisplatin killing; -2 means both sensitise
Active means: 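siRNAs harmful alone (LDH or WST-1) get 0; others get +1 for less and -1 for more cisplatin killing; genes are active when the two siRNAs give the same sign, summing to ±2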
Calls: active = both siRNAs shift cisplatin killing the same way; inactive = no consistent shift, or siRNA harmful alone

two-siRNA summed score (-2 to +2) | call | gene
0 | inactive | RYR1 (ryanodine receptor 1)
0 | inactive | LOC122706
0 | inactive | SSX4 (SSX family member 4)
1 | inactive | CDR2 (cerebellar degeneration related protein 2)
0 | inactive | ZNF26 (zinc finger protein 26)
2 | active | LOC442175
0 | inactive | LOC441622
0 | inactive | TGDS (TDP-glucose 4,6-dehydratase)
0 | inactive | WDR7 (WD repeat domain 7)
0 | inactive | MPDZ (multiple PDZ domain crumbs cell polarity complex component)
0 | inactive | SPATA6L (spermatogenesis associated 6 like)
0 | inactive | VHLL (VHL like)
0 | inactive | RMND1 (required for meiotic nuclear division 1 homolog)
0 | inactive | CFAP184 (cilia and flagella associated protein 184)
1 | inactive | TBX1 (T-box transcription factor 1)
0 | inactive | TCF3 (transcription factor 3)
0 | inactive | FLRT3 (fibronectin leucine rich transmembrane protein 3)
0 | inactive | DYNC1H1 (dynein cytoplasmic 1 heavy chain 1)
1 | inactive | ACTN2 (actinin alpha 2)
0 | inactive | ATP5F1E (ATP synthase F1 subunit epsilon)
0 | inactive | LOC285638
1 | inactive | TEK (TEK receptor tyrosine kinase)
1 | inactive | RENBP (renin binding protein)
0 | inactive | LOC388001
0 | inactive | UAP1L1 (UDP-N-acetylglucosamine pyrophosphorylase 1 like 1)
0 | inactive | RNF40 (ring finger protein 40)
1 | inactive | C7 (complement C7)
0 | inactive | SLITRK1 (SLIT and NTRK like family member 1)
0 | inactive | ZNF566 (zinc finger protein 566)
0 | inactive | LOC139046
0 | inactive | LOC401180 (retired record)
0 | inactive | ENDOG (endonuclease G)
-1 | inactive | LOC390667
0 | inactive | QPCTL (glutaminyl-peptide cyclotransferase like)
1 | inactive | MARK2P21 (MARK2 pseudogene 21)
1 | inactive | GFOD3P
0 | inactive | ATOH7 (atonal bHLH transcription factor 7)
-1 | inactive | NCOA3 (nuclear receptor coactivator 3)
1 | inactive | ZNF540 (zinc finger protein 540)
0 | inactive | ADAMTS4 (ADAM metallopeptidase with thrombospondin type 1 motif 4)
0 | inactive | BLID (BH3-like motif containing, cell death inducer)
0 | inactive | C1orf146 (chromosome 1 open reading frame 146)
0 | inactive | ZNF516 (zinc finger protein 516)
1 | inactive | LOC442248
0 | inactive | FMR1NB (FMR1 neighbor)
0 | inactive | HEATR5A (HEAT repeat containing 5A)
-1 | inactive | ZBTB32 (zinc finger and BTB domain containing 32)
0 | inactive | NSUN5P2 (NSUN5 pseudogene 2)
0 | inactive | BCL11A (BCL11 transcription factor A)
0 | inactive | LOC441017
0 | inactive | PTPRR (protein tyrosine phosphatase receptor type R)
1 | inactive | LOC126520
0 | inactive | SLC10A1
0 | inactive | ASPN (asporin)
0 | inactive | ATP11A (ATPase phospholipid transporting 11A)
2 | active | SNAPC5 (small nuclear RNA activating complex polypeptide 5)
0 | inactive | CARMIL2 (capping protein regulator and myosin 1 linker 2)

Hits, among the entries above:
two-siRNA summed score (-2 to +2) | call | gene
2 | active | LOC442175
2 | active | SNAPC5 (small nuclear RNA activating complex polypeptide 5)
